The exact form of at least one protein or probe is not confirmed.
Molecular target: RpoS (sigma38) (Pseudomonas protegens FD6) (UniProt Q4KHE5)
Assay: EMSA
Conditions: EMSA with Beyotime kits GS002/GS009 (binding buffer and temperature not stated); biotin probe 1 uM (legend; Methods say 1 umol); 100-fold unlabeled competitor; recombinant protein; residues 1-335; protein details: C-terminal His-tag (pET22b); label: biotin

Row | Sequence | binding result
1 | AACTATGCTTTGGCGCTCGAAAATG (double strand) [pltL promoter probe] | binds
2 | TTGCACCGATCTATCTAGTTTTTAA (double strand) [phlA promoter probe] | binds
3 | CGCTCTCACTAAGTTAAATTCAAAT (double strand) [phlG promoter probe] | binds
4 | CGCGATTCCATCGGCACTACGATCT (double strand) [pltF promoter probe] | binds
5 | CCACTAGAACTATTTTTGTATCCAG (double strand) [pltR promoter probe] | binds

From PMC9793710
